Data source: PubChem BioAssay AID504808 (Drosophila RNAi Screening Center, 2011)
The deposit covers about 21,000 reagents; this is an unselected part of those that have a named target and a result. In the full data, 18 (0.084%) got an active call. 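Raw counts without plate normalisation, one of two replicates; the ratio scores behind the calls were not deposited.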 Unmarked entries are inactive. Names joined by + are all predicted targets of the reagent. The record does not give: the amount of reagent, the time to read-out.

- Purpose: 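Genes whose loss lifts activity of an E2F-responsive reporter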 (primary screen)
- Cell system: Drosophila S2 cells
- Knock-down reagent: long dsRNA against Drosophila genes
- Read-out: 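Firefly luciferase driven by E2F sites, normalised to Renilla luciferase on the same minimal promoter, measured by plate reader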
- Reading the numbers: E2F firefly: higher = more E2F reporter activity; Renilla normaliser: higher = more normaliser reporter signal
- Call rule: 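Called active if the normalised E2F reporter went up by over 50%; the cutoff is arbitrary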

predicted target	DRSC id	E2F firefly, rep 1	Renilla normaliser, rep 1
RpS4 (Ribosomal protein S4)	DRSC11272	62063	6370
CG11353	DRSC08182	77964	3687
CG18675	DRSC08536	91993	3659
CG7601	DRSC14131	2033	844
CG11882	DRSC14425	1.34e5	6809
CG10154	DRSC09707	1.30e5	7144
Mettl2 (Methyltransferase like 2)	DRSC08398	67885	3369
CG11052	DRSC14288	1.21e5	6232
List (Lithium-inducible SLC6 transporter)	DRSC06520	1.40e5	5736
CG5376	DRSC15782	1.24e5	6020
Sbp2 (SECIS-binding protein 2)	DRSC10766	79574	3106
CG14668	DRSC12254	1.42e5	6062
CG6937	DRSC16140	74782	5480
Ir56a (Ionotropic receptor 56a)	DRSC05776	1.75e5	7306
Afg3l2 (AFG3 like matrix AAA peptidase subunit 2)	DRSC10657	78365	3955
CG12590	DRSC12216	1.25e5	4994
CG4520	DRSC15590	1.31e5	6396
CG14915	DRSC02399	1.27e5	5860
mEFTu1 (mitochondrial translation elongation factor Tu 1)	DRSC06959	2854	194
Idgf2 (Imaginal disc growth factor 2)	DRSC03350	81122	4027
JTBR	DRSC08667	1.04e5	4233
CG11694	DRSC14354	1.20e5	5665
CG6739	DRSC02987	1.47e5	4675
CG7791	DRSC04891	86436	3797
CG14160	DRSC10161	1.25e5	6278
CG31087	DRSC14253	87438	4546
CG6428	DRSC18402	1.10e5	5763
sns (sticks and stones)	DRSC06423	1.10e5	3794
sns (sticks and stones)	DRSC07687	1.19e5	4489
sns (sticks and stones)	DRSC07688	55662	4498
sns (sticks and stones)	DRSC07689	1.55e5	4755
sns (sticks and stones)	DRSC07691	1.43e5	4777
sns (sticks and stones)	DRSC07692	1.26e5	4175
Gyg (Glycogenin)	DRSC03850	89964	5129
Gyg (Glycogenin)	DRSC04556	1.03e5	4468
alpha-Est1 (alpha-Esterase-1)	DRSC12612	73598	2804
CanA-14F (Calcineurin A at 14F)	DRSC20211	2.52e5	6633
CG8861	DRSC12731	73691	3011
CG8861	DRSC16449	1.27e5	8491
CG4282	DRSC06865	80366	3708
CG4374	DRSC15570	97448	5314
CHKov2 (CHK domain ov2)	DRSC14262	1727	1112
hoe1 (hoepel1)	DRSC00265	1.02e5	4387
hoe1 (hoepel1)	DRSC00333	1.48e5	4987
hoe1 (hoepel1)	DRSC00353	1.37e5	5943
AQP (aquaporin)	DRSC06122	93274	3919
CG9799	DRSC16567	83077	4360
heca (headcase)	DRSC16964	99271	5410
Hsp23 (Heat shock protein 23)	DRSC11188	67421	3409
Obp44a (Odorant-binding protein 44a)	DRSC06838	1.31e5	4342
alpha-Catr (alpha-catenin related)	DRSC04669	94219	3981
CG15279	DRSC01935	93874	3929

Next part, starting with the last 4 of the part before.
predicted target	DRSC id	E2F firefly, rep 1	Renilla normaliser, rep 1
Hsp23 (Heat shock protein 23)	DRSC11188	67421	3409
Obp44a (Odorant-binding protein 44a)	DRSC06838	1.31e5	4342
alpha-Catr (alpha-catenin related)	DRSC04669	94219	3981
CG15279	DRSC01935	93874	3929
tos (tosca)	DRSC03624	68168	3422
CG15022	DRSC08476	72021	3179
Mtmr6 (Myotubularin related protein 6)	DRSC04046	1.01e5	3801
CG2991	DRSC00559	87503	3338
Hexim (Hexamethylene bisacetamide inducible)	DRSC15490	73089	3687
CG4681	DRSC04481	1.08e5	4709
DENR (Density regulated protein)	DRSC20151	1.70e5	6187
Rpn7 (Regulatory particle non-ATPase 7)	DRSC16841	55853	4637
CG6497	DRSC10654	1.64e5	7160
CG4477	DRSC10425	66603	404
CG5214	DRSC15739	1.52e5	7368
CG17048	DRSC06649	1.03e5	4331
Smyd4-2 (SET and MYND domain containing, class 4, member 2)	DRSC10126	1.23e5	5739
sun (stunted)	DRSC20140	2.16e5	7058
Cpr30B (Cuticular protein 30B)	DRSC02728	1.44e5	5108
CG15249	DRSC17978	1.33e5	6107
CG14024	DRSC00868	1.32e5	4919
CG14024	DRSC02354	1.04e5	3628
CG13699	DRSC10048	1.62e5	8063
CG14275	DRSC02379	1.39e5	4853
CG7715	DRSC16301	1.45e5	7581
asf1 (anti-silencing factor 1)	DRSC11324	68372	4039
wash (washout)	DRSC06302	96059	3710
Tsp42Er (Tetraspanin 42Er)	DRSC06183	1.55e5	5662
fd3F + CG42499 (retired record)	DRSC18160	1.03e5	7919
fd3F + CG42499 (retired record)	DRSC18161	1.28e5	9683
Gr63a (Gustatory receptor 63a)	DRSC08438	92218	3704
Pp1-13C (Protein phosphatase 1 at 13C)	DRSC20269	1.39e5	6089
CG9471	DRSC16499	1.32e5	6697
SP1173	DRSC11277	73108	3498
Tapdelta (Translocon-associated protein delta)	DRSC05946	157	32
CG18641	DRSC00527	1.54e5	5904
CG5188	DRSC02826	1.37e5	4979
cu (curled)	DRSC15643	1.52e5	7045
cu (curled)	DRSC15648	1.41e5	6213
CG13801	DRSC08335	93218	3712
Fkbp14 (FK506-binding protein 14)	DRSC04615	82395	3481
bma (black match)	DRSC09896	1.22e5	6035
bma (black match)	DRSC10164	1.19e5	7391
Gem4b + Gem4c + Glos	DRSC18244	1.16e5	5346
CG9447	DRSC05008	1.63e5	5149
CG15710	DRSC06581	1.38e5	4926
CCT8 (Chaperonin containing TCP1 subunit 8)	DRSC07130	2935	224
CG32712	DRSC17820	6919	880
Rpp25 (Ribonuclease P/MRP subunit p25)	DRSC05002	99309	4159
CG18324	DRSC06721	3194	202
CG34205	DRSC04149	1.04e5	4834
CG13050	DRSC09931	1.58e5	7618
CG9519	DRSC20195	8497	744
MFS14 (Major Facilitator Superfamily Transporter 14)	DRSC06524	68193	3478
magu	DRSC06832	2835	202
CG15695	DRSC15117	1.35e5	7459
CG18249	DRSC15318	72300	3552
Cpr64Aa (Cuticular protein 64Aa)	DRSC08460	1.01e5	5039
Cyp9f2 (Cytochrome P450 9f2)	DRSC16635	70240	3270
